Source: PubChem BioAssay AID1259254 (NCATS, 2017)
The whole screen tested about 59,000 reagents; this is a part drawn at random. About 1,550 of them (2.6%) were called active. 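G2 share is only a proxy for re-replication; each gene was hit by three separate siRNAs, and active genes were retested.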 Reagents against one gene are numbered here. Not all columns of the deposit are shown. Not given: the amount of reagent.

Screen: 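Finding genes that stop cells copying their DNA twice in one cycle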 (primary screen)
System: human HCT116 colorectal cancer cells
Knock-down reagent: single siRNA against human genes
Timing: 3 days
Measured: 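Nuclei stained with Hoechst and imaged; cell-cycle phase assigned by DNA content; G2 share scaled per plate, non-targeting siRNA 0%, GMNN siRNA 100%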
Scale: G2 robust z-score and G2 cells, % of GMNN control: higher = more G2 cells, more excess DNA replication
Call rule: 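An siRNA counts as active if its G2 robust z-score lies at least 5 MADs above the screen median; here such calls match roughly 38% of GMNN control or more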

no.	gene symbol	reagent	G2 robust z-score	G2 cells, % of GMNN control	Call
1	TBX5 (T-box transcription factor 5)	1	-0.141	1.97	inactive
2	TBX5 (T-box transcription factor 5)	2	0.329	5.29	inactive
3	TBX5 (T-box transcription factor 5)	3	0.158	4.08	inactive
4	PHIP (PHIP subunit of CUL4-Ring ligase complex)	1	0.32	5.22	inactive
5	PHIP (PHIP subunit of CUL4-Ring ligase complex)	2	-0.901	-3.37	inactive
6	PHIP (PHIP subunit of CUL4-Ring ligase complex)	3	-0.204	1.53	inactive
7	SPZ1 (spermatogenic leucine zipper 1)	1	-0.494	-0.509	inactive
8	SPZ1 (spermatogenic leucine zipper 1)	2	0.234	4.61	inactive
9	SPZ1 (spermatogenic leucine zipper 1)	3	0.798	8.58	inactive
10	RSL1D1 (ribosomal L1 domain containing 1)	1	0.102	3.68	inactive
11	RSL1D1 (ribosomal L1 domain containing 1)	2	-0.487	-0.461	inactive
12	RSL1D1 (ribosomal L1 domain containing 1)	3	1.15	11.1	inactive
13	TP53RK (TP53 regulating kinase)	1	-0.767	-2.43	inactive
14	TP53RK (TP53 regulating kinase)	2	2.57	21	inactive
15	TP53RK (TP53 regulating kinase)	3	-0.269	1.07	inactive
16	ZNF575 (zinc finger protein 575)	1	1.09	10.6	inactive
17	ZNF575 (zinc finger protein 575)	2	1.8	15.6	inactive
18	ZNF575 (zinc finger protein 575)	3	-0.0416	2.67	inactive
19	KRT1 (keratin 1)	1	2.25	18.8	inactive
20	KRT1 (keratin 1)	2	-1.82	-9.85	inactive
21	KRT1 (keratin 1)	3	1.17	11.2	inactive
22	BRCC3 (BRCA1/BRCA2-containing complex subunit 3)	1	2.29	19.1	inactive
23	BRCC3 (BRCA1/BRCA2-containing complex subunit 3)	2	-0.0257	2.79	inactive
24	BRCC3 (BRCA1/BRCA2-containing complex subunit 3)	3	1.74	15.2	inactive
25	NUP153 (nucleoporin 153)	1	1.36	12.6	inactive
26	NUP153 (nucleoporin 153)	2	-0.00421	2.94	inactive
27	NUP153 (nucleoporin 153)	3	0.347	5.41	inactive
28	VWA2 (von Willebrand factor A domain containing 2)	1	-0.529	-0.756	inactive
29	VWA2 (von Willebrand factor A domain containing 2)	2	3.1	24.8	inactive
30	VWA2 (von Willebrand factor A domain containing 2)	3	0.422	5.94	inactive
31	LILRB2 (leukocyte immunoglobulin like receptor B2)	1	0.307	5.13	inactive
32	LILRB2 (leukocyte immunoglobulin like receptor B2)	2	2.03	17.3	inactive
33	LILRB2 (leukocyte immunoglobulin like receptor B2)	3	-0.797	-2.64	inactive
34	PHC2 (polyhomeotic homolog 2)	1	0.703	7.91	inactive
35	PHC2 (polyhomeotic homolog 2)	2	-0.7	-1.95	inactive
36	PHC2 (polyhomeotic homolog 2)	3	-1.05	-4.45	inactive
37	AMER3 (APC membrane recruitment protein 3)	1	-0.673	-1.77	inactive
38	AMER3 (APC membrane recruitment protein 3)	2	-1.07	-4.53	inactive
39	AMER3 (APC membrane recruitment protein 3)	3	-0.0756	2.44	inactive
40	RPL10P8 (ribosomal protein L10 pseudogene 8)	1	7.36	54.8	active
41	RPL10P8 (ribosomal protein L10 pseudogene 8)	2	-0.061	2.54	inactive
42	RPL10P8 (ribosomal protein L10 pseudogene 8)	3	-0.462	-0.286	inactive
43	UTP23 (UTP23 small subunit processome component)	1	1.38	12.7	inactive
44	UTP23 (UTP23 small subunit processome component)	2	-0.0519	2.6	inactive
45	UTP23 (UTP23 small subunit processome component)	3	-0.925	-3.54	inactive
46	GLIPR1L2 (GLIPR1 like 2)	1	0.0453	3.29	inactive
47	GLIPR1L2 (GLIPR1 like 2)	2	-1.02	-4.18	inactive
48	GLIPR1L2 (GLIPR1 like 2)	3	-0.452	-0.215	inactive
49	DPPA4 (developmental pluripotency associated 4)	1	-0.0394	2.69	inactive
50	DPPA4 (developmental pluripotency associated 4)	2	0.0106	3.04	inactive
51	DPPA4 (developmental pluripotency associated 4)	3	-0.769	-2.44	inactive
52	H1-7 (H1.7 linker histone)	1	0.529	6.69	inactive
53	H1-7 (H1.7 linker histone)	2	-0.799	-2.66	inactive
54	H1-7 (H1.7 linker histone)	3	-1.32	-6.3	inactive
55	ITPKB (inositol-trisphosphate 3-kinase B)	1	0.401	5.79	inactive
56	ITPKB (inositol-trisphosphate 3-kinase B)	2	-1.66	-8.7	inactive
57	ITPKB (inositol-trisphosphate 3-kinase B)	3	-1.3	-6.19	inactive
58	SLC37A4	1	3.96	30.8	inactive
59	SLC37A4	2	-0.835	-2.91	inactive
60	SLC37A4	3	3.94	30.7	inactive
61	SEC16B (SEC16 homolog B, endoplasmic reticulum export factor)	1	-0.941	-3.65	inactive
62	SEC16B (SEC16 homolog B, endoplasmic reticulum export factor)	2	2.26	18.9	inactive
63	SEC16B (SEC16 homolog B, endoplasmic reticulum export factor)	3	0.31	5.15	inactive
64	RRAGC (Ras related GTP binding C)	1	-1.31	-6.25	inactive
65	RRAGC (Ras related GTP binding C)	2	-0.218	1.43	inactive
66	RRAGC (Ras related GTP binding C)	3	-0.0963	2.29	inactive
67	ZNF140 (zinc finger protein 140)	1	4.33	33.4	inactive
68	ZNF140 (zinc finger protein 140)	2	1.56	13.9	inactive
69	ZNF140 (zinc finger protein 140)	3	-1.21	-5.55	inactive

Entries listed so far whose target name begins with P or p:
gene symbol	reagent	G2 robust z-score	G2 cells, % of GMNN control	Call
PHIP (PHIP subunit of CUL4-Ring ligase complex)	1	0.32	5.22	inactive
PHIP (PHIP subunit of CUL4-Ring ligase complex)	2	-0.901	-3.37	inactive
PHIP (PHIP subunit of CUL4-Ring ligase complex)	3	-0.204	1.53	inactive
PHC2 (polyhomeotic homolog 2)	1	0.703	7.91	inactive
PHC2 (polyhomeotic homolog 2)	2	-0.7	-1.95	inactive
PHC2 (polyhomeotic homolog 2)	3	-1.05	-4.45	inactive
